This note sets out measurements from article PMC7819943, “Rice protein-binding microarrays: a tool to detect cis-acting elements near promoter regions in rice”.

Amino acid sequences for entries named in this document (tags omitted).
UniProt Q0JBA9, entry or part of it: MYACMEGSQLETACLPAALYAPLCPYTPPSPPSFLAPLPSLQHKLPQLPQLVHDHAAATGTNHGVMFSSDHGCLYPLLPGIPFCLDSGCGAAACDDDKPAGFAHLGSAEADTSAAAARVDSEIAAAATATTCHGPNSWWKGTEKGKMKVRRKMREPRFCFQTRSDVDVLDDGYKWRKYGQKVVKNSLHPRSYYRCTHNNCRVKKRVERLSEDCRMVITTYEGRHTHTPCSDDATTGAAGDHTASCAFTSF

The list shows a part of the results.

This test has as its target OsWRKY34 (Oryza sativa, UniProt Q0JBA9 1-250). Nature of the test: protein-binding microarray (RPBM); PBS, 2% BSA, 51.3 ng/ul salmon testes DNA, 50 uM zinc acetate, 200 nM TF, 25 C, 1 h; high values mean tight binding. To be noted: protein: recombinant; tags: N-terminal polyhistidine and DsRed monomer fusion (pET32a); label: CyDye5-dUTP incorporated in the synthesized complementary strand; 3' TTTTT single-stranded linker to array surface; dsDNA, one strand shown. Summed up:
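In PBS with 2% BSA, salmon testes DNA and 50 µM zinc acetate, 200 nM protein was incubated on a custom Agilent array at 25 °C for 1 h and then washed off. The array had been made double-stranded by primer extension with Cy5-dUTP and blocked with 2% BSA. The proteins were transcription factors fused N-terminally to polyhistidine and DsRed, expressed in E. coli BL21-CodonPlus and purified on Ni–NTA. The binding signal is per-feature fluorescence intensity (arbitrary units) from an Axon 4000B scanner.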
With “ACATGCTCTCTAAGTTTCTCAACGGTGCGTTTCACATTTCCGGAGTCACCTAGTGCAG”, the binding signal is 9010 fluorescence intensity (a.u.).
Next, “AATCTGTTTTTGTCTGGTGTGAATATCAATGGCATGCTCTCGGAGTCACCTAGTGCAG”: 8590 fluorescence intensity (a.u.); “ATCCCATCCACTCCTCGATCTCCTCGTACGCCTATAAAATCGGAGTCACCTAGTGCAG”: 9660 fluorescence intensity (a.u.); “AATCATTCCTTTTTTTACTCTTCATACCATCCATATTTATCGGAGTCACCTAGTGCAG”: 10100 fluorescence intensity (a.u.).
Regarding “GATATTTTGCTTGTATTGTTCGACCACTCGTCTTATTAAACGGAGTCACCTAGTGCAG”, the binding signal is 8040 fluorescence intensity (a.u.).
Consider “ATCGAAATGGGGTTTTCTTTTTTTCTTTTTTTTTTCCTTTCGGAGTCACCTAGTGCAG”, for which the binding signal is 10600 fluorescence intensity (a.u.).
The same measure for “TGTTTCTCTGTATGCTTCTAAACTGCGGCAGATTTTTTTTCGGAGTCACCTAGTGCAG”: 8140 fluorescence intensity (a.u.); for “ACGCTTGGTGGGGTGGGGTGGTGCTGGTGCCATGAACTGCCGGAGTCACCTAGTGCAG”: 22300 fluorescence intensity (a.u.).
Next, “CCCTGTCCCACGTGCCATTTGACATCCACCAGACGGGTTCCGGAGTCACCTAGTGCAG”: 8980 fluorescence intensity (a.u.); “CTTTTCTCATCCCTTTTGTTTCTTCACTCCGGCTCACCGCCGGAGTCACCTAGTGCAG”: 8230 fluorescence intensity (a.u.); “CGCGTCCGAGAATAGCCACAGCCACCCCGCGCGCAACGCCCGGAGTCACCTAGTGCAG”: 8640 fluorescence intensity (a.u.).
The same measure for “AAAAATGTTCCAATCAAGCCTTAACGTGTGTTTTATAGTCCGGAGTCACCTAGTGCAG”: 8510 fluorescence intensity (a.u.); for “ACAACCCCACATGTCAGTCATCCTAATCTCAACCTTTTTTCGGAGTCACCTAGTGCAG”: 8180 fluorescence intensity (a.u.); for “ATGAGTTATTCAACTTTGGTTTTCTTGACTTTTTCATTTGCGGAGTCACCTAGTGCAG”: 8510 fluorescence intensity (a.u.).
Regarding “TTTTCAAGTTATCAGGTGTGATCCTATCCTGCTCAATTGTCGGAGTCACCTAGTGCAG”, the binding signal is 8230 fluorescence intensity (a.u.).
The same measure for “GTCCCCATCATCCCATGGTCCCACGCCCGACGCTGTAGCTCGGAGTCACCTAGTGCAG”: 8560 fluorescence intensity (a.u.); for “GGCACATGAATCATTTCTTTCTATATAAGTACAATCCACTCGGAGTCACCTAGTGCAG”: 8620 fluorescence intensity (a.u.); for “CGCCCATGGACCGGTTCTAGCGTTGGTATGGAGAGCTTCCCGGAGTCACCTAGTGCAG”: 8620 fluorescence intensity (a.u.).
Next, “CACGTCGCGTCCCACCACGTCTCTCTCTCCTACTGTTTTCCGGAGTCACCTAGTGCAG”: 10500 fluorescence intensity (a.u.); “TCCTTTCATCTCTTCTTCTGTGTGTGCGTGTCTGCGAAGCCGGAGTCACCTAGTGCAG”: 11400 fluorescence intensity (a.u.); “TTTTGTGCTTAACACCATATTATGAAACTTTCATCATTTCCGGAGTCACCTAGTGCAG”: 9120 fluorescence intensity (a.u.).
Consider “CATTTTTAACCCCTACTACTTGCCGCACCTTGTGACCATTCGGAGTCACCTAGTGCAG”, for which the binding signal is 8970 fluorescence intensity (a.u.).
The same measure for “CTGGTCATTGTGTCTATGGATGGTGGGGTTCTCAGCTTCACGGAGTCACCTAGTGCAG”: 12700 fluorescence intensity (a.u.); for “CTCGCGCGCCCCGCCCGTTTCGCCTCGGCCGCCTCCTCCACGGAGTCACCTAGTGCAG”: 8480 fluorescence intensity (a.u.); for “CCTCGACCACAAGCACTGCTTCAACTGTTTCAACTTCATACGGAGTCACCTAGTGCAG”: 12000 fluorescence intensity (a.u.).
Take “CCACTGACCACTGTCGCCATTGTCGCCAAGAGCTTAGAGCCGGAGTCACCTAGTGCAG”: the binding signal is 9450 fluorescence intensity (a.u.).
Next, “ATCAGTCCTACTTAATTACCAGGCCACACTCAACCTTTTTCGGAGTCACCTAGTGCAG”: 9730 fluorescence intensity (a.u.).
The same measure for “CGCCGCCTCCGCTCCACTCTCCTCGCCGTCGCCGGTCCTCCGGAGTCACCTAGTGCAG”: 11500 fluorescence intensity (a.u.); for “AGCTTCCTCCGTTTTTTTCTTTCTTTCTTTCTTTTTTTTTCGGAGTCACCTAGTGCAG”: 11800 fluorescence intensity (a.u.).
The same measure for “ACCGATCTCTCTCGCGCGCGCGCGTGCCGCTCTTGCACTACGGAGTCACCTAGTGCAG”: 8192 fluorescence intensity (a.u.).
Take “TTGACTCAACATATGGTTAGTAACCATCGTTCCAATTTATCGGAGTCACCTAGTGCAG”: the binding signal is 8140 fluorescence intensity (a.u.).
In the case of “GGAAAACTTGCTGCCGAACACAGCTCTTCTAGTTTCTCATCGGAGTCACCTAGTGCAG”, the binding signal was 9750 fluorescence intensity (a.u.).
Turning to “CTCCTTTTGCGCTGCTTCTCCTCGCCGCCACCGTGTAGCGCGGAGTCACCTAGTGCAG”, the binding signal was 8230 fluorescence intensity (a.u.).
Next, “AGGAAGCCATCCTCTCTGGATCTCTGCTTGTGCTACTGTACGGAGTCACCTAGTGCAG”: 8270 fluorescence intensity (a.u.); “AAGCACATCAAACTTATAGCCATATTAAAGCCCACTTTTTCGGAGTCACCTAGTGCAG”: 8450 fluorescence intensity (a.u.).
For “AGTTCAGAAAGTGTGCCCGCAATAATTCCGTGACTATAATCGGAGTCACCTAGTGCAG”, the binding signal was 8420 fluorescence intensity (a.u.).
With “TCCGCCGCCGCCCGCCGCCGCCGCCGCCGCCTACACAACCCGGAGTCACCTAGTGCAG”, the binding signal is 10500 fluorescence intensity (a.u.).
The same measure for “TATATATATATATATATATGATATGTAGGACCAATTATCACGGAGTCACCTAGTGCAG”: 10400 fluorescence intensity (a.u.); for “CGCTCAATTCCGCTTTAATTTGGTGACTTGGCGATCGATCCGGAGTCACCTAGTGCAG”: 8100 fluorescence intensity (a.u.); for “TCCTTGGAGGTCTCGCGCGATGTGCTCTCTCTTAAAAACTCGGAGTCACCTAGTGCAG”: 8370 fluorescence intensity (a.u.).
Next, “ACCAGCTGCATTACTTGTATCAATATTTACAGAACCAACTCGGAGTCACCTAGTGCAG”: 9430 fluorescence intensity (a.u.); “GTGGCCAAAATAATATAATCTTCACCGTCATCGATCCATTCGGAGTCACCTAGTGCAG”: 8280 fluorescence intensity (a.u.).
